One substance from article PMC4858740 can be followed below.

Chains of the proteins cited; added tags and fusions are not shown. Lines headed by an entry give the natural chain unless they say otherwise; changes in a name come on top. Residues count along the entry.
UniProt P01024, residues 23-1663: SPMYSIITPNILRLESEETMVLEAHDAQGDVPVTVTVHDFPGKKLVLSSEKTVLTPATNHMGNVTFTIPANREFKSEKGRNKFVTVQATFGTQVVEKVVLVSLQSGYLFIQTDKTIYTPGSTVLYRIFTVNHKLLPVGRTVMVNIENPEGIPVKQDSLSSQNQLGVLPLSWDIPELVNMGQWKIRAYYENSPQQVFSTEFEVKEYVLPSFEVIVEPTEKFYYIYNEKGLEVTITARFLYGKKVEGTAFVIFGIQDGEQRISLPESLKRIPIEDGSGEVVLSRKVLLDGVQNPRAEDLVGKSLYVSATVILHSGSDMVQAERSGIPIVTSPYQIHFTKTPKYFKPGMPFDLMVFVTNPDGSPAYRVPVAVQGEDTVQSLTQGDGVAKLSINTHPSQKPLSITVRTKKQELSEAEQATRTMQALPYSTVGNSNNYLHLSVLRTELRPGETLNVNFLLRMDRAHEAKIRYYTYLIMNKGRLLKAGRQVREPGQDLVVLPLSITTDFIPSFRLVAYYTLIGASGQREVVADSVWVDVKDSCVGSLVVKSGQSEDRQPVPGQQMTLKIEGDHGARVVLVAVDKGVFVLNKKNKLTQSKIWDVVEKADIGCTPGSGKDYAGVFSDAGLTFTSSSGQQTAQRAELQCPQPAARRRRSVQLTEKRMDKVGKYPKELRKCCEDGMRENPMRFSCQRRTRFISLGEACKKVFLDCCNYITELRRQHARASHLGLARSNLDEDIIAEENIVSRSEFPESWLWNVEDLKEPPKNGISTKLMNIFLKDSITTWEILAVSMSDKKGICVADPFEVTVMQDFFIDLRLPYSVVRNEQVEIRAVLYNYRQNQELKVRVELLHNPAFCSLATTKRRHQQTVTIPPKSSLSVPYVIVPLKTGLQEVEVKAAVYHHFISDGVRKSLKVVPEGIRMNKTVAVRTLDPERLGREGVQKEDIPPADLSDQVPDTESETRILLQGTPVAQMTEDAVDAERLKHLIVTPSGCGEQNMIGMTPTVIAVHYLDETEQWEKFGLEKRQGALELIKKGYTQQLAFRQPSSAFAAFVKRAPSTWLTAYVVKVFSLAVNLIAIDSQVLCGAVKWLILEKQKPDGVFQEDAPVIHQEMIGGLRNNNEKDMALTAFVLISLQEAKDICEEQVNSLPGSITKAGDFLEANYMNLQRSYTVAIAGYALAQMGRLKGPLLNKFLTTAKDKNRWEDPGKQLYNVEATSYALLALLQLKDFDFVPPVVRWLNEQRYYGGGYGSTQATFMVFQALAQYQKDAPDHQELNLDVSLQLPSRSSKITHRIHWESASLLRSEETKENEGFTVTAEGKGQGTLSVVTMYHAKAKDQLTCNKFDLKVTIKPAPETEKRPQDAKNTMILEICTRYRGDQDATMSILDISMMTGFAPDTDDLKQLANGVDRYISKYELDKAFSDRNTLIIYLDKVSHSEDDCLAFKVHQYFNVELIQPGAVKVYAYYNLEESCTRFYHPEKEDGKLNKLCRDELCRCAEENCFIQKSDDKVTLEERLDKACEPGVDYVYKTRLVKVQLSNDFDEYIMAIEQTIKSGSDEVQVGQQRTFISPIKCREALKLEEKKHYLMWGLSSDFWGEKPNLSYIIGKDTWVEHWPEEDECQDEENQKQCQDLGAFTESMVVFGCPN
UniProt P10228: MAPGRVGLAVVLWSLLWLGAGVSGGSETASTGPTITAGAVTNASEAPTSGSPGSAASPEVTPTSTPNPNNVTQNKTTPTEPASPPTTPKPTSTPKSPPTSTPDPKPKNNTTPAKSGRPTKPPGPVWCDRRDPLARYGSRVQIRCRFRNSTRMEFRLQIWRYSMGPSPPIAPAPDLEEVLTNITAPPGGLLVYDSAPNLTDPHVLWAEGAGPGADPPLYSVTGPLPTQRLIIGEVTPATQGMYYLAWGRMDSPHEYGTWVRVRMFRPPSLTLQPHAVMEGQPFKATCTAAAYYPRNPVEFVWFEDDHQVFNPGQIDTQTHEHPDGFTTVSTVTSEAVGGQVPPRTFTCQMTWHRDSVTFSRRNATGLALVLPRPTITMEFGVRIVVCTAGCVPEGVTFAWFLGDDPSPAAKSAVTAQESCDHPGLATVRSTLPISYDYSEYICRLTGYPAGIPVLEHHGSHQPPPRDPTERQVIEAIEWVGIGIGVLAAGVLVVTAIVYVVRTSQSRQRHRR

No constants are given. Whether binding was seen depends on the method and setting. Binding calls can cover weak binding; strength is not graded here.

This experiment addresses complement factor C3 (human) (UniProt P01024). The experiment is described as follows: peptide or protein array; both purified.

“HSV glycoprotein C (from UniProt P10228)”: the binding entry is recorded as “binds”.
